Results are given in words; binding and its absence hold for the method and conditions named. In cells and extracts the contact can be indirect. A result given as binding can be weak or reduced; the word gives no strength. Where a sequence is shown, tags or fusion partners need not be part of it.
Target: T1, mKG N-terminal fragment fused to mGRHL3 (mouse) (UniProt Q5FWH3)
T1 sequence: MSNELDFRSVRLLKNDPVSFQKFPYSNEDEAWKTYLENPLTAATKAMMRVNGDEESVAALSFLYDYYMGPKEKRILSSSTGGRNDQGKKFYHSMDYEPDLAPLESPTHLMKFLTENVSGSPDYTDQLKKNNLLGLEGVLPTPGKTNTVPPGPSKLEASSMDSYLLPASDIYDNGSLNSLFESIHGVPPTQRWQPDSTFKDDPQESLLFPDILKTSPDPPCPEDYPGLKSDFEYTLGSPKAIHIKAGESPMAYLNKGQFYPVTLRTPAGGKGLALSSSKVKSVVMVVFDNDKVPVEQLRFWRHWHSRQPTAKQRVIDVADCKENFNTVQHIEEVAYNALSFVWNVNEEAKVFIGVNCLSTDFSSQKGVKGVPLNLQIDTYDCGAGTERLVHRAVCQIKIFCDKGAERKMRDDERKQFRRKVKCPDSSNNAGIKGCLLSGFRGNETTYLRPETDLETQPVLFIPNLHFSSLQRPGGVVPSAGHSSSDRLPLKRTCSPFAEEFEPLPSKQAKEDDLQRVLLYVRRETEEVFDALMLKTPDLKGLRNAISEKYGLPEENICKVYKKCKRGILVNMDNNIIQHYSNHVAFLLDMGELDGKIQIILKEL
Experiment: split reporter; monomeric Kusabira-Green (mKG) fragment complementation, CoralHue Fluo-chase kit; MCF7 and NIH3T3 cells co-transfected with equal amounts of the two plasmids

binding: binds
Substance: mUSP39 fused to an mKG C-terminal fragment (mouse)
